Data taken from ChEMBL document CHEMBL3988442, “University of Dundee, Small-Polar-MMV Screening Library” (2021).

Values are the deposited “Percent Effect”, in %.
How 0% and 100% were set is not recorded. Most values in the screen are low, and negative values occur.
This is an unselected part of the compounds tested.
A dash means the value is not listed here; it may have been measured.

Mtb growth Cornell: 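Whole-cell assay for inhibitors of Mycobacterium tuberculosis growth, labelled Cornell in the record; the read-out is not stated. The concentration is filed as 10 mM, unlikely as a test dose, so the dose is not known. The record gives no direction; compounds strong in two other growth screens of this library score well above the rest, so higher reads as stronger inhibition. About 53,000 compounds were tested under these conditions; 1.7% (about 900) showed 50% or more at least once.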
Mtb heat-shock: 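Assay on Mycobacterium tuberculosis, filed only as a heat shock assay from Cornell; the read-out is not stated. The concentration is filed as 10 mM, unlikely as a test dose, so the dose is not known. The record gives no direction; compounds that gave an IC50 in retests scored well above the rest, so higher reads as stronger inhibition. Size under these conditions: about 69,000 compounds, about 930 of them at 50% or above in at least one test.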

| Compound | Mtb growth Cornell | Mtb heat-shock |
|---|---|---|
| `CCSCCC(=O)NCCn1nc2ccccn2c1=O` | -2.807 | -1.33 |
| `Cn1c(C(=O)N2CCC(C(N)=O)C2)c(Cl)c2ccccc21` (stereo not shown) | 17.54 | 4.505 |
| `CC(C(=O)N1CCN(c2ccc(F)cc2)CC1)n1cc(Br)cn1` (stereo not shown) | - | 10.35 |
| `COc1ccccc1C1CNC(=O)c2nc(-c3c(C)n[nH]c3C)[nH]c2C1` (stereo not shown) | - | 8.39 |
| `[H][C@@]12CCN(Cc3scnc3C)C[C@]1(C(=O)N(C)C)CCO2` | -8.06 | 14.05 |
| `[H][C@]12CC[C@]([H])(CN(C(=O)C3CCC3)C1)N(S(=O)(=O)c1cccnc1)C2` | 12.36 | -24.15 |
| `Cn1ccnc1-c1cn(Cc2cn3c(n2)SCC3)nn1` | -0.9667 | 13.97 |
| `COCCCNc1nc(CNC(C)=O)cc(-c2ccco2)n1` | -57.43 | 0.2029 |
| `CN1CCN(c2nc(O)cc(Cc3ccccc3F)n2)CC1` | 10.81 | -15.3 |
| `O=C(O)C(F)(F)F.[H][C@]12CN(Cc3cc(C)on3)C[C@@]1([H])OCCN(C(=O)c1ccsc1)C2` | 1.977 | -14.94 |
| `CCN(C(=O)c1cc2c([nH]c1=O)CCCC2=O)C1CCCCC1` | 19.38 | 0.1364 |
| `O=C(Cc1c[nH]c(=O)[nH]c1=O)N1CCC2(CCC(=O)N(C3CC3)C2)CC1` | 8.58 | -3.994 |
| `CN(CC(=O)N1CCc2[nH]c3ccccc3c2C1)CC1OCCO1` | 16.43 | -13.76 |
| `CSc1ncc(CN2CC(Oc3c(C)cccc3C)C2)cn1` | -13.3 | -5.671 |
| `CCCC(C)(C)NC(=O)CCN1CCOC1=O` | -33.21 | -20 |
| `CN(Cc1n[nH]c2c1CCCC2)C(=O)c1cccc(CCC(C)(C)O)c1` | 3.01 | -1.008 |
| `Cn1ccc(C(=O)N2CCC(c3cc(CCO)n(C)n3)C2)n1` (stereo not shown) | -24.45 | 12.16 |
| `CN(C)CC(=O)N1CCC2(CC1)CN(c1ccsc1)C(=O)CO2.O=C(O)C(F)(F)F` | - | -14.58 |
| `Cn1cc(C2CCCN2C(=O)c2ccc(OCC3CC3)nc2)cn1` (stereo not shown) | 8.973 | -6.402 |
| `O=C(COc1cccnc1)N1CCCC(n2cccn2)C1` (stereo not shown) | 30.77 | 5.772 |
| `CN(C)c1cccc(CNC(=O)Nc2ccc3[nH]nnc3c2)n1` | 45.79 | -8.207 |
| `CC(C)[C@@H]1CN(S(=O)(=O)c2cccc(C(=O)O)c2)C[C@H]1N(C)C` | -4.395 | -4.447 |
| `Cc1cc(C)c2nc(C)cc(C(=O)NC(C)c3nnn[nH]3)c2c1` (stereo not shown) | 25.59 | 5.692 |
| `CCNc1ncc(C(=O)N[C@H]2CC[C@H](n3cnnc3)CC2)cn1` | 7.645 | 4.797 |
| `O=C1CC2(CCCC2)C(=O)N1CC(O)COCc1ccccc1F` (stereo not shown) | -3.034 | -3.216 |
| `CC(c1cccc(S(N)(=O)=O)c1)N(C)CCCOc1ccccc1` (stereo not shown) | - | -3.544 |
| `Cc1cccc(-c2noc(CN3CCn4c(nnc4C4CC4)C3)n2)c1` | 17.02 | -1.795 |
| `CSCC1CCN(C(=O)c2ccccc2NCc2cccnc2)C1` (stereo not shown) | 9.198 | -32.97 |
| `CCS(=O)(=O)NCCNC(=O)c1cc(Cl)c2c(c1)OCCCO2` | 17.94 | -1.865 |
| `NC(=O)C1CN(C(=O)c2ccc(F)cc2)CCN1CCc1ccccc1` (stereo not shown) | 14.49 | -1.079 |
| `O=C(O)C(F)(F)F.[H][C@@]12CCN(c3cnccn3)C[C@]1([H])CN(C(=O)C1CCCC1)C2` | 7.517 | 11.88 |
| `Cc1ncc(CNC(=O)CCc2cccs2)c(C2CCCN2C)n1` (stereo not shown) | -2.251 | 25.13 |
| `O=C(c1ccc2c(c1)CCCC2)N1CCOCC1c1ncon1` (stereo not shown) | -2.102 | 12.88 |
| `CN1N=C(C(=O)N2CCCC(n3cccn3)C2)CCC1=O` (stereo not shown) | - | 8.242 |
| `COc1nc(C)ccc1CNC(=O)NC(C)(C)c1ncc(C)s1` | - | -5.94 |
| `Fc1ccccc1-c1noc2c1CN(CCN1CCOCC1)CC2` | 5.991 | 12.24 |
| `Cc1ccc(CNc2ccccc2SCCC(N)=O)s1` | 23.91 | -31.31 |
| `CC1CCN(c2ccc(CNC(=O)NCCn3ccnc3)cn2)CC1` | -19.29 | -15.99 |
| `C[C@@H]1CN(C(=O)c2ccc(C#N)nc2)C[C@@]1(O)C1CC1` | - | 2.438 |
| `CCOC(C)c1nc(CN2CCNCC2)cs1` (stereo not shown) | - | -7.022 |
| `O=C1CC(NS(=O)(=O)c2ccc(Cl)cc2)CN1` (stereo not shown) | 14.11 | 10.24 |
| `CC1=C(c2ccc(F)cc2)S(=O)(=O)N=C1N1CCc2ccccc21` | -0.6512 | 25.32 |
| `CC(C)c1cc(=O)[nH]c(-n2nc(C3CC3)cc2N)n1` | 108.3 | 103 |
| `O=C(O)C(F)(F)F.[H][C@@]12CN(C)CCO[C@]1([H])CN(C(=O)COc1ccc(C)cc1)C2` | 21.09 | -38.53 |
| `Cc1ncc(CNC2CCCN(Cc3noc(C4CC4)n3)C2)s1` (stereo not shown) | - | 2.217 |
| `Cc1cc(N(C)C)nc(N2CCCC2c2cc(C)on2)n1` (stereo not shown) | 6.154 | 7.329 |
| `NCc1ccnc(Oc2ccc(F)cc2)c1` | 0.2892 | 4.639 |
| `Cc1cnn(CCNCC(O)COc2ccc(Cl)cc2)c1` (stereo not shown) | 16.46 | -3.372 |
| `CCOCc1ccccc1CNc1ccc2nncn2n1` | -8.634 | -17.35 |
| `O=C1CCCN1CCCN1CCCCC1Cn1cncn1` (stereo not shown) | -17.4 | -7.078 |
| `Cc1nc(C)n(C2CCCN(C(=O)c3csc(C)n3)C2)n1` (stereo not shown) | - | -6.22 |
| `Cc1cc(C)c(CNC(=O)C(C)Oc2ccccc2F)c(=O)[nH]1` (stereo not shown) | 6.849 | 11.56 |
| `O=C(O)C(F)(F)F.O=C(O)C(F)(F)F.[H][C@@]12CCN(Cc3ccoc3)C[C@]1([H])OCCN(Cc1cccnc1)C2=O` | - | -189.5 |
| `COc1ccc(CN(C)CC2CCCN2c2cccnn2)cc1F` (stereo not shown) | - | -14.48 |
| `Cc1cc(Cl)c(C)c(S(=O)(=O)N2CCN(Cc3ccncc3)CC2)c1Cl` | -8.001 | -25.91 |
| `c1cc(-c2noc(CN3CCn4c(nnc4C4CC4)C3)n2)cs1` | - | 4.321 |

Some entries from above, unchanged:

CN(C)CC(=O)N1CCC2(CC1)CN(c1ccsc1)C(=O)CO2.O=C(O)C(F)(F)F read Mtb heat-shock: -14.58%.
CC(C)c1cc(=O)[nH]c(-n2nc(C3CC3)cc2N)n1 read Mtb growth Cornell: 108.3%; Mtb heat-shock: 103%.
CSCC1CCN(C(=O)c2ccccc2NCc2cccnc2)C1 (stereo not shown) read Mtb growth Cornell: 9.198%; Mtb heat-shock: -32.97%.
CN1CCN(c2nc(O)cc(Cc3ccccc3F)n2)CC1 read Mtb growth Cornell: 10.81%; Mtb heat-shock: -15.3%.